Test: peptide synthesis
Conditions: late stage modification step

Question: What does the source list for “N^van-2-(n-Decylamino)ethyl 29-{[(Phosphonomethyl)amino] methyl} Vancomycin”?
Answer: crude HPLC purity (HPLC area, hydrochloride (di-/trihydrochloride mixture)): ca. 80% (HPLC area); step yield (di- and trihydrochloride): ˜100%

Source: patent US20050020488 (published 2005)
